Results: patent US20240262923A1
No constants are given. Whether binding was seen depends on the method and setting. Some results given as binding are weak or reduced against the parent protein; the word gives no strength.

The chains behind the UniProt entries cited, without tags or fusion partners. Where a name states a change or a piece, a line headed by the entry shows the natural chain unless it says otherwise. Residues count along the entry.
UniProt Q07011: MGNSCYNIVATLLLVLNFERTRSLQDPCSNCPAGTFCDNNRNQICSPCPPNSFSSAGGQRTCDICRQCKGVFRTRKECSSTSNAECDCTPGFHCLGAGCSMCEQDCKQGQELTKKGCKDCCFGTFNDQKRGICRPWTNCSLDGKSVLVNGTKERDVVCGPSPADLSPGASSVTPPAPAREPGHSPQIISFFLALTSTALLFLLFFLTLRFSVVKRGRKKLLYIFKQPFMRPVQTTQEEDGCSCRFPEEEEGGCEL
UniProt P41273, residues 71-254: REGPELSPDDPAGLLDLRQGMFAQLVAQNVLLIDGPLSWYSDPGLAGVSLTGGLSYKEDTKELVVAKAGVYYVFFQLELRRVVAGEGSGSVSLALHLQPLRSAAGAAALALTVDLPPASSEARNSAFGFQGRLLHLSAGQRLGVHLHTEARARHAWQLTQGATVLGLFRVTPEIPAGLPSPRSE

Target: human His-tagged 4-1BB recombinant protein (human) (UniProt Q07011)
Assay: ELISA on coated human His-tagged 4-1BB; the bound 4-1BBL itself is detected (curve '4-1BBL'), serial dilution of 4-1BBL

binding: binds
Substance: 4-1BBL-Fc (from UniProt P41273 71-254) (Fc fusion)
